According to the supplement of paper PMC8166895:
Where a name gives a salt, the structure may show the parent alone. Some of the results follow. Most values lie at the level of the controls, where differences are scatter.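 Melting temperature was read by differential scanning fluorimetry in a single-replicate pilot screen of a library of approved drugs and clinical or known-target compounds. Compounds raising the melting point by at least 2 °C were the top stabilizing hits, and negative shifts mean destabilization.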

system: SARS-CoV-2 main protease (Mpro, nsp5); assay: thermal shift ΔTm of Mpro relative to plate average Tm; higher = stronger thermal stabilization of Mpro (binding); settings: 10 µM; protein concentration 1 µM

| SMILES | thermal shift ΔTm of Mpro [°C] |
| --- | --- |
| CNC(=O)c1cc(COc2nnc(Nc3ccc(Cl)cc3)c3ccoc23)ccn1 [Telatinib] | -0.0164 |
| N[C@@H]1CC[C@@H](c2ccc(Cl)c(Cl)c2)c2ccccc21 [Dasotraline hydrochloride] | -0.0944 |
| Cc1ccc(CN(Cc2ccc(-c3ccccc3S(=O)(=O)NC#N)cc2)C(=O)c2ccccc2Cl)cc1 | -0.0829 |
| N#Cc1cc(-c2n[nH]c(-c3ccncc3)n2)ccn1 [Topiroxostat] | 0.159 |
| C[N+]1(C)[C@@H]2C[C@@H](OC(=O)[C@H](CO)c3ccccc3)C[C@H]1[C@@H]1O[C@@H]12 [Methscopolamine] | 0.159 |
| C[C@]12CC[C@H](O)C[C@@H]1CC[C@@H]1[C@@H]2CC[C@]2(C)C(=O)CC[C@@H]12 [Epiandrosterone] | -0.193 |
| COc1ccc(S(=O)(=O)N(C(C)=O)c2ccccc2/C=C/c2cc[n+]([O-])cc2)cc1 | 0.528 |
| COc1ccc2c(c1)C(c1ccc(F)cc1)=C(CN1CCCC1)CO2 | -0.0905 |
| O=C1CC2(CCCC2)CC(=O)N1CCCCN1CCN(c2ncccn2)CC1 [Buspirone HCl] | 0.0475 |
| CC[C@H]1OC(=O)[C@H](C)[C@@H](O[C@H]2C[C@@](C)(OC)[C@@H](O)[C@H](C)O2)[C@H](C)[C@@H](O[C@@H]2O[C@H](C)C[C@H](N(C)C)[C@H]2O)[C@](C)(O)C[C@@H](C)[C@@H]2N[C@@H](COCCOC)O[C@H]([C@H]2C)[C@]1(C)O [Dirithromycin] | 0.0087 |
| CCc1c(C(=O)C(N)=O)c2c(OCC(N)=O)cccc2n1Cc1ccccc1 [hnps-PLA Inhibitor] | -0.0357 |
| Cc1cc(C)c(/C=C2\C(=O)Nc3ccccc32)[nH]1 [Semaxinib] | -0.0618 |
| Cc1cc(C)c(/C=C2\C(=O)Nc3ccccc32)[nH]1 [Semaxanib (SU5416)] | -0.226 |
| O=C(NOC[C@H](O)CO)c1ccc(F)c(F)c1Nc1ccc(I)cc1F | -0.04 |
| CC(C)c1cc(-c2ccc(F)c3ccccc23)nc(N)n1 | -0.13 |
| Cc1cccc(C#Cc2ccccc2)n1 | -0.139 |
| CC(C)(C)C1CCC(CC2=C(O)c3ccccc3C(=O)C2=O)CC1 (stereo not given) [Buparvaquone] | 0.399 |
| COc1ccc(C(NC(=O)c2cnc(-c3cccnn3)[nH]c2=O)c2ccc(OC)cc2)cc1 | 0.0226 |
| CN(C)C(=O)Oc1cc(OC(=O)N(C)C)cc(C(O)CNC(C)(C)C)c1 (stereo not given) [Bambuterol HCl] | 0.0464 |
| C[C@H](O)C(=O)Nc1c(I)c(C(=O)NC(CO)CO)c(I)c(C(=O)NC(CO)CO)c1I [Iopamidol] | 0.42 |

Shown bar-delimited: entries from further up.
SMILES | thermal shift ΔTm of Mpro [°C]
CC(C)c1cc(-c2ccc(F)c3ccccc23)nc(N)n1 | -0.13
COc1ccc(C(NC(=O)c2cnc(-c3cccnn3)[nH]c2=O)c2ccc(OC)cc2)cc1 | 0.0226

The list goes on.

| SMILES | thermal shift ΔTm of Mpro [°C] |
| --- | --- |
| O=c1cc[nH]c(=S)[nH]1 [2-Thiouracil] | 0.0602 |
| Cc1nc(-c2cn3c(n2)-c2ccc(-c4cnn(C(C)(C)C(N)=O)c4)cc2OCC3)n(C(C)C)n1 | -0.0369 |
| O=C(/C=C/c1ccc(CN(CCO)CCc2c[nH]c3ccccc23)cc1)NO [LAQ824 (Dacinostat)] | 0.122 |
| Nc1nc(NCCc2ccc(O)cc2)nc2nc(-c3ccco3)nn12 | -0.0369 |
| COc1cc2oc(-c3ccccc3)cc(=O)c2c(O)c1O [Negletein] | -0.0544 |
| O=C(O)c1cnn(-c2nc3cc(OC(F)(F)F)c(Cl)cc3[nH]2)c1 [HIF-PHD Inhibitor II] | 0.00517 |
| O=C(O)c1ccc(CN2CCC(CN[C@@H]3C[C@H]3c3ccccc3)CC2)cc1 | -0.0236 |
| CCOCC(O)COc1ccc(NC(=O)CC[S+](C)C)cc1 (stereo not given) [Suplatast Tosylate] | 0.0604 |
| COc1cc(OCc2ccccn2)ccc1/C=C/c1cc(/C=C/c2ccc3cc[nH]c3c2)n[nH]1 | 0.16 |
| COc1c(O)c(C)cc2c1C(=O)c1c(O)cccc1C2=O [Obtusifolin] | 0.167 |
| N#Cc1ccc([C@H]2CCc3cncn32)c(F)c1 [Osilodrostat] | 0.0859 |
| CO/N=C(\C(=O)N[C@@H]1C(=O)N2C(C(=O)O)=C(COC(N)=O)CS[C@H]12)c1ccco1 [Cefuroxime sodium] | -0.0192 |
| CN1CCN(CCOc2cc(OC3CCOCC3)c3c(Nc4c(Cl)ccc5c4OCO5)ncnc3c2)CC1 [Saracatinib (AZD0530)] | -0.179 |
| CCN(C)C(=O)Oc1cccc([C@H](C)N(C)C)c1 [Rivastigmine] | 0.174 |
| CCN(C)C(=O)Oc1cccc([C@H](C)N(C)C)c1 [Rivastigmine Tartrate] | 0.112 |
| CNC(=O)c1cnn(-c2nc(N)c3ncn([C@@H]4O[C@H](CO)[C@@H](O)[C@H]4O)c3n2)c1 [Regadenoson] | 0.0581 |
| O=c1[nH]c(=S)[nH]c(/N=C/c2ccccc2)c1N=Cc1ccccc1 | -0.0226 |
| CCC(=O)c1c(O)cc(O)cc1O [Flopropione] | 0.474 |
| C=CC(=O)Nc1ccc2ncnc(Nc3cccc(Br)c3)c2c1 | 0.395 |
| CC1Cc2ccccc2N1NC(=O)c1ccc(Cl)c(S(N)(=O)=O)c1 (stereo not given) [Indapamide] | -0.17 |

Shown as tab-separated lines: entries from further up
SMILES	thermal shift ΔTm of Mpro [°C]
CCN(C)C(=O)Oc1cccc([C@H](C)N(C)C)c1 [Rivastigmine]	0.174
C=CC(=O)Nc1ccc2ncnc(Nc3cccc(Br)c3)c2c1	0.395
